Assay results reported in patent publication US4280993A, “Process for determining the concentration of benzodiazepines in a body fluid” (priority 1978, dated 1981).

What was measured:
[1] = Recovery of lorazepam in biological fluids with extraction with ethyl acetate; set-up: species or system human
[2] = Recovery of lorazepam in biological fluids without extraction; set-up: species or system human
[3] = Blood (heparine), added 100 ng/ml
[4] = Blood (heparine), added 250 ng/ml
[5] = Blood (heparine), added 500 ng/ml
[6] = Plasma (heparine), added 100 ng/ml
[7] = Plasma (heparine), added 250 ng/ml
[8] = Plasma (heparine), added 500 ng/ml

Compound: O=C1Nc2ccc(Cl)cc2C(c2ccccc2Cl)=NC1O (stereo not shown) [lorazepam, 7-chloro-5-(2-chlorophenyl)-3-hydroxy-2,3-dihydro-1H-1,4-benzodiazepin-2-one]
- Recovery ([1]; Blood (EDTA), added 10 ng/ml): 93%
- Recovery ([1]; Blood (citrate), added 10 ng/ml): 104%
- Recovery ([1]; Blood (heparine + NaF), added 3 ng/ml): 83%
- Recovery ([1]; Blood (heparine + NaF), added 10 ng/ml): 90%
- Recovery ([1]; Blood (heparine + NaF), added 30 ng/ml): 85%
- Recovery ([1]; Blood (heparine), added 3 ng/ml): 97%
- Recovery ([1]; Blood (heparine), added 10 ng/ml): 90%
- Recovery ([1]; Blood (heparine), added 30 ng/ml): 76%
- Recovery ([1]; Plasma (EDTA), added 10 ng/ml): 90%
- Recovery ([1]; Plasma (citrate), added 10 ng/ml): 104%
- Recovery ([1]; Plasma (heparine), added 3 ng/ml): 107%
- Recovery ([1]; Plasma (heparine), added 10 ng/ml): 90%
- Recovery ([1]; Plasma (heparine), added 30 ng/ml): 96%
- Recovery ([1]; Saliva, added 10 ng/ml): 106%
- Recovery ([1]; Serum, added 10 ng/ml): 91%
- Recovery ([1]; Urine, added 10 ng/ml): 95%
- sensivity ([1]; with the extraction method): > 1 ng/mL
- sensivity [2]: about 20 ng/ml
- Lorazepam found [2, 3]: 115 ng/mL
- Recovery [2, 3]: 115%
- Lorazepam found [2, 4]: 254 ng/mL
- Recovery [2, 4]: 102%
- Lorazepam found [2, 5]: 486 ng/mL
- Recovery [2, 5]: 97%
- Lorazepam found [2, 6]: 99 ng/mL
- Recovery [2, 6]: 99%
- Lorazepam found [2, 7]: 227 ng/mL
- Recovery [2, 7]: 91%
- Lorazepam found [2, 8]: 409 ng/mL
- Recovery [2, 8]: 82%
- Lorazepam found ([2]; Saliva, added 20 ng/ml): 16 ng/mL
- Recovery ([2]; Saliva, added 20 ng/ml): 80%
- Lorazepam found ([2]; Urine, added 20 ng/ml): 17.5 ng/mL
- Recovery ([2]; Urine, added 20 ng/ml): 87%
